PubChem BioAssay AID1224826, NIAID, 2016
Here is a random part of about 17,000 deposited reagents. About 1,110 of them (6.6%) were called active. 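Active means lowered or raised reporter signal; replicate intensities are raw and not normalised per plate.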 Not all columns of the deposit are shown.

Assay: 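Genes that change LPS-induced Tnf promoter activity in mouse macrophages when knocked down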 (primary screen)
Cell system: RAW264.7 G9 macrophages from mouse bearing reporters for p65 (GFP) and the Tnf promoter (mCherry)
Reagent: siRNA pool against mouse genes, 100 nM
Duration: 16 h of LPS stimulation, after 2 days of siRNA transfection
Challenge: bacterial lipopolysaccharide (Salmonella minnesota R595), 10 ng/ml
Detection: 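Imaged Tnf reporter mCherry in nuclei, minus background, normalised per plate to the median and expressed as robust z-scores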
Reading the numbers: Tnf reporter robust z-score: higher = stronger Tnf promoter reporter signal after LPS
Active means: 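a well counts as active at a score of -1.3 or below (Tlr4 knock-down control median) or above 3 (raised signal); controls and wells holding fewer than 50 cells are excluded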
Meaning of the calls: active = Tnf reporter clearly lowered or raised; inactive = no clear change in Tnf reporter

target gene	PubChem SID	Tnf reporter robust z-score	fewer than 50 cells in well	activity call
Fars2 (phenylalanine-tRNA synthetase 2, mitochondrial)	SID315473944	0.01	enough cells in well	inactive
Igfbp6 (insulin-like growth factor binding protein 6)	SID315467414	0.19	enough cells in well	inactive
Sim1 (single-minded family bHLH transcription factor 1)	SID315469253	0.2	enough cells in well	inactive
Trpt1 (tRNA phosphotransferase 1)	SID315476593		fewer than 50 cells per well; well left out of calls	inactive
Cyp2b19 (cytochrome P450, family 2, subfamily b, polypeptide 19)	SID315466227	0.93	enough cells in well	inactive
Snx12 (sorting nexin 12)	SID315471330		fewer than 50 cells per well; well left out of calls	inactive
Ppdpf	SID315472477		fewer than 50 cells per well; well left out of calls	inactive
Med14 (mediator complex subunit 14)	SID315470466	-1.47	enough cells in well	active
Rbx1 (ring-box 1)	SID315471535	-0.29	enough cells in well	inactive
Or2h2 (olfactory receptor family 2 subfamily H member 2)	SID315480148	0.13	enough cells in well	inactive
Rnf34 (ring finger protein 34)	SID315475720	0.39	enough cells in well	inactive
Pbsn (probasin)	SID315471174	1.63	enough cells in well	inactive
Wdr45 (WD repeat domain 45)	SID315471277	1.89	enough cells in well	inactive
Zfp759 (zinc finger protein 759)	SID315480788	-0.86	enough cells in well	inactive
Ccdc166 (coiled-coil domain containing 166)	SID315478272	1.03	enough cells in well	inactive
Smarcc1 (SWI/SNF related BAF chromatin remodeling complex subunit C1)	SID315469330	0.09	enough cells in well	inactive
Msantd5l (Myb/SANT DNA binding domain containing 5 like)	SID315477433	0.86	enough cells in well	inactive
Lgi4 (leucine-rich repeat LGI family, member 4)	SID315479721	0.52	enough cells in well	inactive
Rnf25 (ring finger protein 25)	SID315471809	0.47	enough cells in well	inactive
Sprr2e (small proline-rich protein 2E)	SID315469444	4.19	enough cells in well	active
Sbsn (suprabasin)	SID315481024	-0.92	enough cells in well	inactive
Stk11ip (serine/threonine kinase 11 interacting protein)	SID315474297	-0.79	enough cells in well	inactive
Zfand3 (zinc finger, AN1-type domain 3)	SID315469674	0.17	enough cells in well	inactive
Ints7 (integrator complex subunit 7)	SID315475444	0.95	enough cells in well	inactive
1700010D01Rik (RIKEN cDNA 1700010D01 gene)	SID315475299	-0.91	enough cells in well	inactive
Pnpla2 (patatin-like phospholipase domain containing 2)	SID315472673	-0.15	enough cells in well	inactive
Rin2 (Ras and Rab interactor 2)	SID315474820	0.02	enough cells in well	inactive
Sytl3 (synaptotagmin-like 3)	SID315475851	-0.72	enough cells in well	inactive
Rnf220 (ring finger protein 220)	SID315472618	-1.27	enough cells in well	inactive
Scgb2b24 (secretoglobin, family 2B, member 24)	SID315479056	0.92	enough cells in well	inactive
Ankrd2 (ankyrin repeat domain 2)	SID315471628	0.92	enough cells in well	inactive
Nat9 (N-acetyltransferase 9 (GCN5-related, putative))	SID315472268	-0.02	enough cells in well	inactive
Kifc3 (kinesin family member C3)	SID315467633	0.51	enough cells in well	inactive
Hnrnpl (heterogeneous nuclear ribonucleoprotein L)	SID315467246	0.04	enough cells in well	inactive
Jund (jun D proto-oncogene, AP-1 transcription factor subunit)	SID315467555	0.29	enough cells in well	inactive
Svs5 (seminal vesicle secretory protein 5)	SID315469541	0.98	enough cells in well	inactive
Ywhaq	SID315470080	-0.33	enough cells in well	inactive
Fkbp5 (FK506 binding protein 5)	SID315466701	-0.81	enough cells in well	inactive
Or2z8 (olfactory receptor family 2 subfamily Z member 8)	SID315481932	-1.87	enough cells in well	active
Cebpb (CCAAT/enhancer binding protein beta)	SID315465930	-1.02	enough cells in well	inactive
Rnf216 (ring finger protein 216)	SID315476686	-0.56	enough cells in well	inactive
Tas2r139 (taste receptor, type 2, member 139)	SID315481696	1.01	enough cells in well	inactive
Lurap1l (leucine rich adaptor protein 1-like)	SID315471017	0.17	enough cells in well	inactive
Inhbb (inhibin beta-B)	SID315467476	0.18	enough cells in well	inactive
Bex1 (brain expressed X-linked 1)	SID315468955	-0.76	enough cells in well	inactive
Or6c211 (olfactory receptor family 6 subfamily C member 211)	SID315479976		fewer than 50 cells per well; well left out of calls	inactive
Hs3st1 (heparan sulfate (glucosamine) 3-O-sulfotransferase 1)	SID315467303	-1.73	enough cells in well	active
Cacng2 (calcium channel, voltage-dependent, gamma subunit 2)	SID315465720	-0.38	enough cells in well	inactive
Them6 (thioesterase superfamily member 6)	SID315478268		fewer than 50 cells per well; well left out of calls	inactive
Natd1 (N-acetyltransferase domain containing 1)	SID315470318	-0.29	enough cells in well	inactive
Pigx (phosphatidylinositol glycan anchor biosynthesis, class X)	SID315474448	-0.49	enough cells in well	inactive
Hagh (hydroxyacyl glutathione hydrolase)	SID315466927	1.89	enough cells in well	inactive
Vdac2 (voltage-dependent anion channel 2)	SID315469990	-0.75	enough cells in well	inactive
Trak1 (trafficking protein, kinesin binding 1)	SID315472831	-0.63	enough cells in well	inactive
Emc3 (ER membrane protein complex subunit 3)	SID315472205		fewer than 50 cells per well; well left out of calls	inactive
Or2n1b (olfactory receptor family 2 subfamily N member 1B)	SID315480471	-1.09	enough cells in well	inactive
Fastkd2 (FAST kinase domains 2)	SID315475164	-0.43	enough cells in well	inactive
Defb39 (defensin beta 39)	SID315481729	-1.69	enough cells in well	active
Me1 (malic enzyme 1, NADP(+)-dependent, cytosolic)	SID315467960	1	enough cells in well	inactive
Dedd2 (death effector domain-containing DNA binding protein 2)	SID315472987	1.13	enough cells in well	inactive
Ncapg2 (non-SMC condensin II complex, subunit G2)	SID315475232	-0.01	enough cells in well	inactive
Fgfbp3 (fibroblast growth factor binding protein 3)	SID315474567	0.27	enough cells in well	inactive
Lgi3 (leucine-rich repeat LGI family, member 3)	SID315477807	1.82	enough cells in well	inactive
A130050O07Rik (RIKEN cDNA A130050O07 gene)	SID315481236	-1.06	enough cells in well	inactive
Or1o3 (olfactory receptor family 1 subfamily O member 3)	SID315480178	-0.35	enough cells in well	inactive
Trim52 (tripartite motif-containing 52)	SID315477716	-0.86	enough cells in well	inactive
Ctla2a (cytotoxic T lymphocyte-associated protein 2 alpha)	SID315466189	-1.06	enough cells in well	inactive
Erbb4 (erb-b2 receptor tyrosine kinase 4)	SID315466549	0.2	enough cells in well	inactive
Tcea3 (transcription elongation factor A (SII), 3)	SID315469605	0.36	enough cells in well	inactive
Akap3 (A kinase anchor protein 3)	SID315465371	-1.35	enough cells in well	active
Icosl (icos ligand)	SID315470820	1.67	enough cells in well	inactive
4930578I06Rik (RIKEN cDNA 4930578I06 gene)	SID315473206		fewer than 50 cells per well; well left out of calls	inactive
Mgarp (mitochondria localized glutamic acid rich protein)	SID315473205	-0.24	enough cells in well	inactive
Angel1 (angel homolog 1)	SID315473621	0.13	enough cells in well	inactive
Agpat2 (1-acylglycerol-3-phosphate O-acyltransferase 2)	SID315473075	0.1	enough cells in well	inactive

Targets listed so far whose gene name starts with O or o:
target gene	PubChem SID	Tnf reporter robust z-score	fewer than 50 cells in well	activity call
Or2h2 (olfactory receptor family 2 subfamily H member 2)	SID315480148	0.13	enough cells in well	inactive
Or2z8 (olfactory receptor family 2 subfamily Z member 8)	SID315481932	-1.87	enough cells in well	active
Or6c211 (olfactory receptor family 6 subfamily C member 211)	SID315479976		fewer than 50 cells per well; well left out of calls	inactive
Or2n1b (olfactory receptor family 2 subfamily N member 1B)	SID315480471	-1.09	enough cells in well	inactive
Or1o3 (olfactory receptor family 1 subfamily O member 3)	SID315480178	-0.35	enough cells in well	inactive
